# Assay results from PubChem BioAssay AID445 (National Center for Advancing Translational Sciences (NCATS), 2006).
# This is one part of the list. Further columns of the screen follow, without active or inactive calls. The list favours compounds with an active or inconclusive main result. The note in brackets gives the kind of curve behind each potency; many fits are weak.
# Assay: IkB Signaling
# Settings: ABC-DLBCL IkBa-CBG/CBR dual luciferase ratio (green luciferase fused to IkBa over red control in OCI-Ly3 lymphoma cells), 4 h
# How it was run: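 Curves were fitted separately to fusion (green), unfused (red) and ratio luminescence, then classed by r2, magnitude and activity. Cells: OCI-Ly3, 4 h compound plus doxycycline at 37C; 10 uM MG-132 defined full response.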
# [1] = measured here: control luc red channel unless noted
# [2] = measured here: IkB-luc green channel
# [3] = measured here: control luc red channel
smiles,measurement,setting,value
CCn1cc2nc(SCc3ccccc3Cl)n(CCc3ccccc3)c(=O)c2n1,AC50,[1],"31.6 µM [falling, single point]"
COc1ccccc1NC1SC(=O)N(c2ccccc2)C1=O (stereo not given),AC50,[1],"0.0398 µM [falling, full curve]"
CCC12CN3CC(C)(CN(C1)C3c1ccccc1C)C2=O (stereo not given),AC50,[1],"39.8 µM [falling, single point]"
Cc1ccccc1-c1nc2cc(NC(=O)c3cccc(OCCC(C)C)c3)ccc2o1,AC50,[1],"0.631 µM [falling, full curve]"
COc1cc(NC(=O)c2ccc(-c3nc(COc4ccccc4)c(C)o3)cc2)cc(OC)c1,AC50,[1],"2.51 µM [falling, full curve]"
O=C1Nc2ccccc2C(O)(C(=O)NCc2ccco2)N1c1ccc(Cl)c(Cl)c1 (stereo not given),AC50,[1],"0.316 µM [falling, full curve]"
O=C(CSc1nnc(CNC(=O)c2ccccc2F)n1-c1ccccc1)Nc1ccccc1F,AC50,[1],"6.31 µM [falling, partial curve]"
CC(=O)C1=C(c2ccc(Cl)c(Cl)c2)N(C(C)=O)n2c(nnc2C2CCCCC2)S1,AC50,[1],"15.8 µM [falling, partial curve]"
O=C(CCc1nnc2n(Cc3ccccc3Cl)c(=O)c3ccccc3n12)Nc1ccc(F)cc1,AC50,[1],"31.6 µM [falling, partial curve]"
Cc1ccc(S(=O)(=O)c2cnc(SC(C)C(=O)Nc3ccccc3)[nH]c2=O)cc1 (stereo not given),AC50,[1],"15.8 µM [falling, partial curve]"
CCN1C(=O)c2cccc3c(S(=O)(=O)NCc4ccco4)ccc1c23,AC50,[1],"31.6 µM [rising, partial curve] [measured here: IkB-luc green channel]"
Cc1noc(C)c1CSc1nc2ccccc2c(=O)n1-c1ccccc1,AC50,[1],"25.1 µM [falling, single point]"
COc1cccc(C(c2c(O)cc(C)n(Cc3ccco3)c2=O)N2CCN(c3ccccc3)CC2)c1 (stereo not given),AC50,[1],"6.31 µM [falling, partial curve, poor fit]"
O=C(CSc1nccn1Cc1ccc(Cl)cc1)Nc1ccc2c(c1)OCCO2,AC50,[1],"39.8 µM [falling, single point]"
Cc1ccc(SC/C(O)=C(\C#N)c2nc3ccccc3s2)cc1,AC50,[1],"2 µM [falling, full curve]"
COC(=O)c1cc2sccc2n1Cc1nc(-c2ccc(Cl)cc2)oc1C,AC50,[1],"31.6 µM [falling, single point]"
CCOCCCn1c(SCC(=O)Nc2ccc(C)cc2)nc2ccccc2c1=O,AC50,[1],"31.6 µM [falling, single point]"
COc1ccc(CNC(=O)C(C)n2ccc3cc(S(=O)(=O)N4CCCC4)ccc32)cc1OC (stereo not given),AC50,[1],"7.94 µM [falling, partial curve]"
COc1ccccc1NC(=O)C1=C(C)Nc2nc(SCc3ccccc3C)nn2C1CC(C)C (stereo not given),AC50,[1],"2.51 µM [falling, full curve]"
COc1ccc(C(=O)c2oc3ccc(OC)cc3c2N)cc1,AC50,[1],"0.794 µM [rising, partial curve]"
O=C(COc1ccccc1)Nc1nnc(S(=O)(=O)N2CCCC2)s1,AC50,[1],"15.8 µM [falling, single point]"
O=C(OCC1CCCO1)c1ccc2c(c1)N(Cc1ccccc1Cl)C(=O)c1ccccc1S2(=O)=O (stereo not given),AC50,[2],"0.316 µM [rising, partial curve]"
same,AC50,[3],"7.94 µM [rising, partial curve]"
O=C(Nc1ccc2oc(-c3ccc4ccccc4c3)nc2c1)c1ccccc1F,AC50,[1],"0.794 µM [rising, full curve]"
CCOc1ccc(-n2c(=O)c3c4c(sc3n(CC(=O)Nc3cccc(C(F)(F)F)c3)c2=O)CCCCC4)cc1,AC50,[1],"12.6 µM [falling, partial curve]"
COc1ccccc1NC(=O)C(Cc1ccccc1)NS(=O)(=O)c1ccc2c(c1)c(=O)n(C)c(=O)n2C (stereo not given),AC50,[1],"15.8 µM [falling, partial curve]"
O=C(NCc1ccc(F)cc1)c1c(O)nc2ccccn2c1=O,AC50,[1],"25.1 µM [falling, single point]"
CCCCOc1cccc(NC(=O)CSc2nnc(C)s2)c1,AC50,[1],"31.6 µM [falling, single point]"
CN(Cc1ccccc1)c1ncnc2onc(-c3ccc(F)cc3)c12,AC50,[1],"15.8 µM [falling, partial curve]"
COc1ccc(NC(=O)COc2ccc(S(=O)(=O)NC3CCCCC3)cc2)cc1OC,AC50,[1],"15.8 µM [falling, partial curve]"
CC(NC(=O)CCNS(=O)(=O)c1cccc2nsnc12)c1ccccc1 (stereo not given),AC50,[1],"31.6 µM [falling, partial curve]"
Cc1ccc2c(=O)cc(CSCC(=O)Nc3nnc(C)s3)[nH]c2c1,AC50,[1],"39.8 µM [falling, single point]"
O=C(Nc1cccc(Cl)c1)c1cnc[nH]1,AC50,[1],"12.6 µM [falling, partial curve]"
O=C(COc1ccccc1)N(Cc1cccnc1)c1nc2ccc(F)cc2s1,AC50,[1],"2.51 µM [rising, partial curve]"
O=C(CN1C(=O)COc2ccc(S(=O)(=O)N3CCOCC3)cc21)N1CCN(c2ccccc2)CC1,AC50,[1],"31.6 µM [falling, single point]"
Cc1c(C(=O)OC2CCCC2)[nH]c2c1C(=O)CC(c1ccco1)C2 (stereo not given),AC50,[2],"15.8 µM [rising, partial curve]"
same,AC50,[3],"1 µM [rising, partial curve]"
COc1ccc(CCNC(=O)C2CCCN(c3nc4c(C)cc(C)cc4s3)C2)cc1OC (stereo not given),AC50,[1],"25.1 µM [falling, partial curve]"
CCOC(=O)c1c(NC(=O)c2cc(C(C)C)on2)sc(C)c1C,AC50,[1],"39.8 µM [rising, single point]"
Cc1ccc(S(=O)(=O)C(CNC(=O)c2ccccc2F)c2cccs2)cc1 (stereo not given),AC50,[1],"31.6 µM [falling, single point]"
Cc1cccc(CN2CCN(CC(=O)NCc3ccc(Cl)cc3)C2=O)c1,AC50,[1],"1.58 µM [falling, partial curve, poor fit]"
Cc1cc(C)cc(NS(=O)(=O)c2ccc3c(c2)CCCN3C(=O)C2CCC2)c1,AC50,[1],"39.8 µM [falling, single point]"
CCc1ccc2oc(C(=O)Nc3nonc3CC)c(C)c2c1,AC50,[1],"0.2 µM [rising, full curve]"
O=C(Nc1ccc(Br)cc1F)c1ncoc1-c1ccco1,AC50,[1],"0.0126 µM [rising, full curve, poor fit]"
N#C/C(C(=O)N1CCOCC1)=C1\Nc2ccccc2S1,AC50,[1],"1.58 µM [falling, full curve]"
CCOc1ccccc1NS(=O)(=O)c1ccc(-c2cnc(C3CC3)o2)cc1,AC50,[2],"0.794 µM [rising, full curve, poor fit]"
same,AC50,[3],"1.26 µM [rising, partial curve]"
COC(=O)CSc1nsc(SCC(=O)OC)c1C#N,AC50,[1],"25.1 µM [falling, single point]"
Cc1c(Cl)cccc1NC(=O)c1ncn(-c2ccccc2)n1,AC50,[1],"1.58 µM [falling, full curve]"
CC(=O)Nc1ccc(NC(=O)c2oc3ccc4c(c3c2C)C(=O)CC(C)(C)O4)cc1,AC50,[1],"25.1 µM [falling, partial curve]"
O=c1c(N2CCc3ccccc3C2)csc2ccccc12,AC50,[1],"3.98 µM [falling, partial curve]"
O=C(NCCc1ccccc1)c1ccc2c(c1)N(Cc1ccccc1F)C(=O)c1ccccc1S2=O (stereo not given),AC50,[1],"20 µM [rising, single point]"
CCn1cc(C(=O)Nc2cc3c(cc2NC(C)=O)OCCO3)c(=O)c2ccc(C)nc21,AC50,[1],"15.8 µM [rising, partial curve, poor fit]"
CCOc1ccc(-c2nc3c(c(SCC(=O)N4CCCCC4)n2)Cc2ccccc2O3)cc1,AC50,[1],"39.8 µM [falling, single point]"
O=C(C1CCCN(S(=O)(=O)c2ccc(Br)s2)C1)N1CCN(c2ccccc2)CC1 (stereo not given),AC50,[1],"20 µM [falling, partial curve]"
CC(=O)N1CCCc2cc(S(=O)(=O)N3CCCC(C(=O)Nc4cc(Cl)ccc4C)C3)ccc21 (stereo not given),AC50,[1],"0.158 µM [falling, full curve, poor fit]"
C=Cc1ccc(Cn2c(C(=O)O)c(CNCc3ccccc3)c3ccc(C)cc32)cc1,AC50,[1],"25.1 µM [falling, partial curve]"
CCCCN(C)C(=O)C1CCC(CNS(=O)(=O)c2ccc(Cl)cc2)CC1 (stereo not given),AC50,[1],"20 µM [falling, partial curve, poor fit]"
O=C(Cn1ncc2c1-c1ccccc1OC2)Nc1ccc(Cl)cn1,AC50,[1],"20 µM [falling, partial curve]"
Cc1ccc(CS(=O)(=O)c2ncc(Cl)c(C(=O)Nc3nc4ccc(F)cc4s3)n2)cc1,AC50,[1],"7.94 µM [falling, full curve]"
COC(=O)[C@H]1[C@H]2C[C@H]3c4[nH]c5ccccc5c4CCN3C[C@@H]2CC[C@@H]1O,AC50,[1],"31.6 µM [rising, partial curve] [measured here: IkB-luc green channel]"
Cc1oc(-c2cccc(Cl)c2)nc1CN1CCCC(C(=O)NCc2ccco2)C1 (stereo not given),AC50,[1],"20 µM [falling, single point]"
Cc1ccc(NS(=O)(=O)c2ccc3c(c2)CCCN3C(=O)C2CCC2)cc1Cl,AC50,[1],"31.6 µM [falling, partial curve]"
Nc1c(C(=O)Nc2ccc(C(=O)O)cc2)sc2nc3c(cc12)CCCC3,AC50,[1],"0.251 µM [falling, full curve]"
C=CCn1c(=O)c2ccccc2n2c(SC(C)C(=O)Nc3nc(-c4ccccc4)cs3)nnc12 (stereo not given),AC50,[1],"7.94 µM [falling, partial curve]"

# Exported as tab-separated lines: entries from further up
smiles	measurement	setting	value
Cc1noc(C)c1CSc1nc2ccccc2c(=O)n1-c1ccccc1	AC50	[1]	25.1 µM [falling, single point]
COc1cccc(C(c2c(O)cc(C)n(Cc3ccco3)c2=O)N2CCN(c3ccccc3)CC2)c1 (stereo not given)	AC50	[1]	6.31 µM [falling, partial curve, poor fit]
